Data from paper PMC2323286.
Results are given in words; binding and its absence hold for the method and conditions named. For some assays here: In cells and extracts the contact can be indirect. Some binding calls cover weakened binding; strength is not graded here. For some assays here: Tags and fused reporters may be left off the sequences shown.

Amino acid sequences for entries named in this document (tags omitted).
UniProt P21699: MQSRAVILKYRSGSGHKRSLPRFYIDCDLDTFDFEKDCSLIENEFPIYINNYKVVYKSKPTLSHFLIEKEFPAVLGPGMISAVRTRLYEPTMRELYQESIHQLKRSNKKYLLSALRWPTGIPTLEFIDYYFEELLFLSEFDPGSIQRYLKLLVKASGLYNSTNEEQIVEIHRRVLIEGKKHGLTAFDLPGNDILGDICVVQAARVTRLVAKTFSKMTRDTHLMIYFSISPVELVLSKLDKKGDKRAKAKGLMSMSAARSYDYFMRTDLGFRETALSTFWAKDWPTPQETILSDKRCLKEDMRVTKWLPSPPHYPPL
UniProt P21698: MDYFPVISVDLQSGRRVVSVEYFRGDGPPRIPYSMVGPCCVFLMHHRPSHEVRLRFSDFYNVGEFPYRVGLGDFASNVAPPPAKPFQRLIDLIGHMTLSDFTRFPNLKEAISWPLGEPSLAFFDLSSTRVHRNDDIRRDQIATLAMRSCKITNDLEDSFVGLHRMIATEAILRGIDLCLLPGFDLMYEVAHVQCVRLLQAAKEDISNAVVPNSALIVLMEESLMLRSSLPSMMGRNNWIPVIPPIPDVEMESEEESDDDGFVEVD

What was measured:
[1] = target: NSs of Toscana virus fused to the Gal4 DNA-binding domain (pGBKT7-NSsTOS) (Toscana virus) (UniProt P21699); assay: two-hybrid
[2] = target: GST-NSs (Rift Valley fever virus) (UniProt P21698); assay: pull-down; […]; 50 mM Tris HCl pH 7.5, 100 mM NaCl, […]; only the target purified

## SAP30 amino acids 1-152 fused to the Gal4 transactivating domain (pACT2-SAP30_(1–152)) (from UniProt O88574 1-152) (domain or fragment)
[1]
  binding: no binding

B1: full length HA tagged-SAP30 protein (pCi-HA-SAP30) (protein, UniProt O88574 1-220)
chain: MNGFTPEEMSRGGDAAAAVAAVVAAAAAAASAGNGNAAGGGAEVPGAGAVSASGPPGAAGPGPGQLCCLREDGERCGRAAGNASFSKRIQKSISQKKVKIELDKSARHLYICDYHKNLIQSVRNRRKRKGSDDDGGDSPVQDIDTPEVDLYQLQVNTLRRYKRHFKLPTRPGLNKAQLVEIVGCHFKSIPVNEKDTLTCFIYSVRNDKNKSDLKADSGVH
[2]
  binding: binds
